The list is a part of this screen's results and no random one: it is rich in T/C values a quarter to a half above the control, in often repeated tests (any T/C) and in doses without a T/C. Other doses and runs of a compound stand elsewhere. T/C is the treated group as % of the vehicle group. Some entries give survivors of the animals treated and no T/C: the source holds a T/C of zero for them, seemingly a mark for toxic or unscored doses. Some doses without a T/C left all or most animals alive at the check, yet need not have been tolerated: the source hardly ever lists a survival T/C far under the control, and the zero likely stands for such cases as well. Counts of survivors are from the toxicity check (mostly the fifth day) where no day follows; animals may have died later. Schedule codes are those of the source, read here as Q, the interval in days (D) or hours (H), X, the number of doses. Some doses were run more than once; the results are listed from low to high. Marks such as (2×) count equal records among those shown. For survival time, the PubChem record calls one and a half times the control and up active, and a quarter to a half above the control has no call in these data; cut-offs in other NCI protocols can differ. Some T/C values carry the count of animals alive at the toxicity check (mostly the fifth day); where none is given, no animal had died by that day.
Tested on: BDF1 mice, P388 leukemia ip, median survival T/C
Assay: NCI In Vivo Anticancer Drug Screen. Data for tumor model P388 Leukemia (intraperitoneal) in B6D2F1 (BDF1) mice
Settings: T/C endpoint: median survival time, higher T/C = longer survival
Outline: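 T/C = treated-group survival ÷ vehicle-control survival; tumour transplanted into mice before dosing.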

[1] = dose: 100.0 mg/kg/injection, schedule: Q04DX003 (ip), vehicle: saline
[2] = dose: 50.0 mg/kg/injection, schedule: Q01DX009 (ip), vehicle: saline
[3] = dose: 75.0 mg/kg/injection, schedule: Q01DX009 (ip), vehicle: saline
[4] = dose: 200.0 mg/kg/injection, schedule: Q04DX003 (ip), vehicle: saline
[5] = dose: 200.0 mg/kg/injection, schedule: Q01DX009 (ip), vehicle: Klucel (hydroxypropylcellulose) (HPC)
[6] = dose: 400.0 mg/kg/injection, schedule: Q01DX009 (ip), vehicle: Klucel (hydroxypropylcellulose) (HPC)
[7] = dose: 132.0 mg/kg/injection, schedule: Q04DX003 (ip), vehicle: saline
[8] = dose: 225.0 mg/kg/injection, schedule: Q01DX009 (ip), vehicle: saline
[9] = dose: 300.0 mg/kg/injection, schedule: Q01DX009 (ip), vehicle: saline
[10] = dose: 50.0 mg/kg/injection, schedule: Q01DX009 (ip), vehicle: saline with Tween-80
[11] = dose: 400.0 mg/kg/injection, schedule: Q04DX003 (ip), vehicle: saline

SMILES: COc1ccc(CC2C(=O)NC(C)C(=O)N(C)C3Cc4ccc(cc4)Oc4cc(ccc4O)CC(C(=O)NC(C)C(=O)NC(C)C(=O)N2C)N(C)C3=O)cc1 (configuration not stated)
- T/C (dose: 1.56 mg/kg/injection, schedule: Q04DX003 (ip), vehicle: other): 127 % of control
- T/C (dose: 2.59 mg/kg/injection, schedule: Q04DX003 (ip), vehicle: other): 145 % of control
- survivor count (dose: 12.0 mg/kg/injection, schedule: Q04DX003 (ip), vehicle: other): 5 of 8
- survivor count (dose: 20.0 mg/kg/injection, schedule: Q04DX003 (ip), vehicle: other): 4 of 8

SMILES: COc1cc(OC)c(OC)cc1/C=C\c1ccnc2ccccc12
- T/C (dose: 100.0 mg/kg/injection, schedule: Q01DX009 (ip), vehicle: carboxymethylcellulose (CMC)): 131 % of control
- T/C (dose: 300.0 mg/kg/injection, schedule: Q01DX010 (ip), vehicle: saline): 130 % of control

SMILES: O=C1NC(c2ccccc2)(c2ccccc2)C(=O)N1CCS
- survivor count (dose: 12.5 mg/kg/injection, schedule: Q04DX003 (ip), vehicle: saline): 6 of 6
- survivor count (dose: 50.0 mg/kg/injection, schedule: Q04DX003 (ip), vehicle: saline): 6 of 6
- survivor count [1]: 6 of 6

SMILES: NN=C1CCC(=NN)CC1
- T/C (dose: 25.0 mg/kg/injection, schedule: Q01DX009 (ip), vehicle: water): 134 % of control
- survivor count (dose: 100.0 mg/kg/injection, schedule: Q01DX009 (ip), vehicle: water): 4 of 6 and 6 of 6 (2×)
- T/C (dose: 100.0 mg/kg/injection, schedule: Q04DX003 (ip), vehicle: water): 129 % of control
- survivor count (dose: 200.0 mg/kg/injection, schedule: Q04DX003 (ip), vehicle: water): 3 of 6

SMILES: CC1(C)N=C(N)N=C(N)N1c1ccc2ccccc2c1
- T/C (dose: 25.0 mg/kg/injection, schedule: Q01DX009 (ip), vehicle: saline): 135 % of control
- T/C (dose: 33.0 mg/kg/injection, schedule: Q01DX009 (ip), vehicle: saline): 131 and 145 % of control
- T/C [2]: 145 % of control (2×)
- survivor count [3]: 0 of 6
- survivor count [1]: 3 of 6
- survivor count [4]: 2 of 6

SMILES: COC(=O)c1[nH]c(=O)[nH]c(=O)c1F
- T/C (dose: 75.0 mg/kg/injection, schedule: Q04DX003 (ip), vehicle: saline with Tween-80): 131 % of control

SMILES: C=C(C)C1CCC2=CC(CC3(C)OC3C3=CC(C(=O)OC)=C(C1)O3)OC2=O (configuration not stated)
- survivor count (dose: 100.0 mg/kg/injection, schedule: Q01DX009 (ip), vehicle: Klucel (hydroxypropylcellulose) (HPC)): 6 of 6
- survivor count [5]: 6 of 6

SMILES: COC1NC(=O)NC(=O)C1=[N+]=[N-] (configuration not stated)
- T/C (dose: 7.5 mg/kg/injection, schedule: Q01DX009 (ip), vehicle: saline with Tween-80): 137 % of control

SMILES: CCC[CH2][Sn]1([CH2]CCC)[O]C(=O)C[S]1
- T/C (dose: 3.13 mg/kg/injection, schedule: Q04DX003 (ip), vehicle: saline with Tween-80): 127 % of control
- T/C (dose: 4.5 mg/kg/injection, schedule: Q04DX003 (ip), vehicle: saline with Tween-80): 133 % of control

SMILES: C/C(=N\NC(N)=O)c1ccc(Cl)cc1
- survivor count [5]: 0 of 6
- survivor count [6]: 0 of 6

SMILES: CCN(CCNc1ccc(C)c2sc3ccccc3c(=O)c12)CC(C)(C)O
- T/C [2]: 130 % of control
- T/C [3]: 145 % of control
- T/C (dose: 99.0 mg/kg/injection, schedule: Q01DX009 (ip), vehicle: saline): 145 % of control
- T/C [7]: 131 % of control
- T/C [4]: 140 % of control
- survivor count [8]: 5 of 6
- survivor count [9]: 6 of 6

SMILES: CCOC(=O)C1CC1c1ccccc1 (configuration not stated)
- T/C [10]: 130 % of control
- T/C (dose: 200.0 mg/kg/injection, schedule: Q01DX009 (ip), vehicle: saline with Tween-80): 125 % of control

SMILES: O=[N+]([O-])c1ccc(S(=O)c2ccc([N+](=O)[O-])c3nonc23)cc1 (configuration not stated)
- survivor count (dose: 60.0 mg/kg/injection, schedule: Q01DX009 (ip), vehicle: saline with Tween-80): 5 of 7

SMILES: CCCCCCCCCCCCCC(=O)CC
- survivor count (dose: 300.0 mg/kg/injection, schedule: Q04DX003 (ip), vehicle: saline with Tween-80): 6 of 6

SMILES: CCOc1cc(Cl)c(N)c(Cl)c1
- survivor count (dose: 400.0 mg/kg/injection, schedule: Q01DX001 (ip), vehicle: saline with Tween-80): 1 of 6

SMILES: CCCCNC(C)(C)C(SS)c1ccc(Cl)cc1 (configuration not stated)
- survivor count (dose: 400.0 mg/kg/injection, schedule: Q04DX003 (ip), vehicle: Klucel (hydroxypropylcellulose) (HPC)): 1 of 6

SMILES: CCN(CC)CCCC(C)NCCCN (configuration not stated)
- survivor count (dose: 100.0 mg/kg/injection, schedule: Q01DX009 (ip), vehicle: saline): 6 of 6
- survivor count (dose: 200.0 mg/kg/injection, schedule: Q01DX009 (ip), vehicle: saline): 4 of 6
- survivor count (dose: 400.0 mg/kg/injection, schedule: Q01DX009 (ip), vehicle: saline): 0 of 6

SMILES: [Fe+5].[O-][Cl+3]([O-])([O-])O.[O-]c1ccccc1C=NCCN1CC1.[O-]c1ccccc1C=NCCN1CC1
- T/C (dose: 25.0 mg/kg/injection, schedule: Q04DX003 (ip), vehicle: saline with Tween-80): 142 % of control
- T/C (dose: 50.0 mg/kg/injection, schedule: Q04DX003 (ip), vehicle: saline with Tween-80): 133 % of control
- survivor count (dose: 200.0 mg/kg/injection, schedule: Q04DX003 (ip), vehicle: saline with Tween-80): 1 of 6
- survivor count (dose: 400.0 mg/kg/injection, schedule: Q04DX003 (ip), vehicle: saline with Tween-80): 0 of 6

SMILES: Cc1cc2c3ccccc3ncn2n1
- survivor count (dose: 400.0 mg/kg/injection, schedule: Q01DX001 (ip), vehicle: saline): 4 of 6
- survivor count [6]: 4 of 6

SMILES: NS(=O)(=O)c1ccc(Cl)cc1
- survivor count (dose: 150.0 mg/kg/injection, schedule: Q01DX009 (ip), vehicle: saline): 0 of 6
- survivor count [8]: 0 of 6
- survivor count (dose: 335.0 mg/kg/injection, schedule: Q01DX009 (ip), vehicle: saline): 0 of 6

SMILES: Nc1ccccc1C(=O)N/N=C\c1ccc(O)cc1
- T/C [10]: 126 % of control

SMILES: CCOC(=O)/C=C(\C)Sc1cc(O)c2ccccc2c1O
- survivor count (dose: 12.5 mg/kg/injection, schedule: Q01DX009 (ip), vehicle: saline with Tween-80): 5 of 6

SMILES: CC1(C)COCN1CN1COCC1(C)C
- survivor count [4]: 3 of 6

SMILES: Cc1ccc(NC(=O)NCCCOc2ccc(N3C(N)=NC(N)=NC3(C)C)cc2Cl)cc1S(=O)(=O)F
- T/C [7]: 131 and 135 % of control
- T/C [4]: 131 and 145 % of control
- survivor count [9]: 4 of 6
- T/C (dose: 300.0 mg/kg/injection, schedule: Q04DX003 (ip), vehicle: saline): 135 [5 of 6 alive] and 145 % of control
- survivor count [11]: 4 of 6

SMILES: CCc1ccc(C(=O)NN)cc1
- survivor count [11]: 1 of 6

SMILES: O=C(Oc1ccccc1[N+](=O)[O-])c1ccccc1
- survivor count (dose: 100.0 mg/kg/injection, schedule: Q04DX003 (ip), vehicle: other): 6 of 6
- survivor count (dose: 200.0 mg/kg/injection, schedule: Q04DX003 (ip), vehicle: other): 6 of 6

SMILES: Nc1nc(=S)c2[nH]cnc2[nH]1
- T/C (dose: 1.2 mg/kg/injection, schedule: Q01DX009 (ip), vehicle: alkali diluted with saline): 127, 138, 140 % of control
- T/C (dose: 1.25 mg/kg/injection, schedule: Q01DX010 (ip), vehicle: other): 131 % of control
- T/C (dose: 1.25 mg/kg/injection, schedule: Q01DX010 (ip), vehicle: saline): 127 % of control
- T/C (dose: 1.8 mg/kg/injection, schedule: Q01DX009 (ip), vehicle: alkali diluted with saline): 137 and 138 % of control (2×)
- T/C (dose: 2.5 mg/kg/injection, schedule: Q01DX010 (ip), vehicle: other): 131 % of control
- survivor count (dose: 2.5 mg/kg/injection, schedule: Q01DX010 (ip), vehicle: saline): 6 of 6
- survivor count (dose: 5.0 mg/kg/injection, schedule: Q01DX010 (ip), vehicle: saline): 6 of 6
- survivor count (dose: 10.0 mg/kg/injection, schedule: Q01DX010 (ip), vehicle: other): 6 of 6
- survivor count (dose: 10.0 mg/kg/injection, schedule: Q01DX010 (ip), vehicle: saline): 6 of 6

— PubChem BioAssay AID328 (DTP/NCI, 2004)
